Some of the results follow.
How the values were obtained:
Experiment in all cases: log2 fold change, soluble protein after heating vs DMSO (PISA); higher = thermal stabilisation; K562 lysate, 10 uM; active = over 0.2 and 3.5 SD of the protein, either way, in both replicates (recomputed)
lapatinib = compound: CS(=O)(=O)CCNCc1ccc(-c2ccc3ncnc(Nc4ccc(OCc5cccc(F)c5)c(Cl)c4)c3c2)o1 [lapatinib]
How it was run: (§1)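 Following dounce homogenisation of K562 pellets in PBS pH 7.4 with 1 mM MgCl2, crude extract at 1 mg/mL protein was incubated for 30 min with 10 μM compound. Aliquots were then heated for 3 min over 48°C-58°C and pooled, NP-40 was added to 0.5% at 4°C, and soluble protein was recovered as the supernatant at 21,000xg for 90 min. Channel-sum-equalised TMTpro 16plex LC-MS/MS quantified this protein. Each value, from duplicates, is a log-two fold change in thermal stability relative to solvent controls.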

Chains of the proteins cited; added tags and fusions are not shown. Lines headed by an entry give the natural chain unless they say otherwise; changes in a name come on top.
UniProt Q15042: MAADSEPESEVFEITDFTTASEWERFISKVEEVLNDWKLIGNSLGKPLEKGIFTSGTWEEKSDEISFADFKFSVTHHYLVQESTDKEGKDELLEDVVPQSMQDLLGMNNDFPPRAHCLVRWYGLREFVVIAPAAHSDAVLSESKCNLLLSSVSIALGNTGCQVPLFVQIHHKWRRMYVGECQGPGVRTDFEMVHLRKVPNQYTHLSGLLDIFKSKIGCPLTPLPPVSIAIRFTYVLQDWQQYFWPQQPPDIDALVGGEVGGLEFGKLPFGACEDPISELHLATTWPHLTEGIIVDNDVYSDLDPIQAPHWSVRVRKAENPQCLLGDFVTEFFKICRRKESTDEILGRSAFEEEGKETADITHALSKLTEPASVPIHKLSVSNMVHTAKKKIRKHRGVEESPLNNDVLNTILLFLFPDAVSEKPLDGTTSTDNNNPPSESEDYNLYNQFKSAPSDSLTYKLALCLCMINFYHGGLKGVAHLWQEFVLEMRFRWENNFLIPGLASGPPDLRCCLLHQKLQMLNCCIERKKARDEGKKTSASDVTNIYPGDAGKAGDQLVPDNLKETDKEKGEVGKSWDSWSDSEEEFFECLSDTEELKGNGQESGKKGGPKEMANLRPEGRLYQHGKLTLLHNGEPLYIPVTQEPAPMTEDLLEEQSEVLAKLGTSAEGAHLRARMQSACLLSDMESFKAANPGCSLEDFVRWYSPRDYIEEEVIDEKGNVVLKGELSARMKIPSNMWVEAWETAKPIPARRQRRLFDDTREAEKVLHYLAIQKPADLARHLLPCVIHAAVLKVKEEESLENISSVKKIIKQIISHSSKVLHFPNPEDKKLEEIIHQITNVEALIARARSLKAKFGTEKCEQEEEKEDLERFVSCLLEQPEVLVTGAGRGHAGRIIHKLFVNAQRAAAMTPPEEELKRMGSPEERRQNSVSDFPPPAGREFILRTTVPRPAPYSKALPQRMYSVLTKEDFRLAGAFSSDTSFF
UniProt P11233: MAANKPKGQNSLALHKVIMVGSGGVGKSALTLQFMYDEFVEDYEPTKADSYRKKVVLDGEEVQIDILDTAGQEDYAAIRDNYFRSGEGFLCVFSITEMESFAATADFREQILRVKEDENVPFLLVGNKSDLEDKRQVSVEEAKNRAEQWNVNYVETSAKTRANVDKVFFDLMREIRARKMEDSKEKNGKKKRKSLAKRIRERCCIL
UniProt Q15286: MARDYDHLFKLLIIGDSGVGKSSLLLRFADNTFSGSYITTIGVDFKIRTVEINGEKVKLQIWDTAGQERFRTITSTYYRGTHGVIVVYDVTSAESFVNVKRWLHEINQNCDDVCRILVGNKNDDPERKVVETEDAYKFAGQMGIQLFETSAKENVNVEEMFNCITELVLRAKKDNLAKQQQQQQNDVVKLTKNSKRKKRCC
UniProt P09417: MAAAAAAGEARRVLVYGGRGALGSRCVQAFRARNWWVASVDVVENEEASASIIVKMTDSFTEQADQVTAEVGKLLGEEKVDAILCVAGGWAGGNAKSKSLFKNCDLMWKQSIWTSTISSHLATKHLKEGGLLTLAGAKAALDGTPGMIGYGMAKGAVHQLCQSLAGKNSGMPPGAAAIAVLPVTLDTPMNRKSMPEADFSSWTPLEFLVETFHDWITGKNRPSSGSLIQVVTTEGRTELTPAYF
UniProt P78406: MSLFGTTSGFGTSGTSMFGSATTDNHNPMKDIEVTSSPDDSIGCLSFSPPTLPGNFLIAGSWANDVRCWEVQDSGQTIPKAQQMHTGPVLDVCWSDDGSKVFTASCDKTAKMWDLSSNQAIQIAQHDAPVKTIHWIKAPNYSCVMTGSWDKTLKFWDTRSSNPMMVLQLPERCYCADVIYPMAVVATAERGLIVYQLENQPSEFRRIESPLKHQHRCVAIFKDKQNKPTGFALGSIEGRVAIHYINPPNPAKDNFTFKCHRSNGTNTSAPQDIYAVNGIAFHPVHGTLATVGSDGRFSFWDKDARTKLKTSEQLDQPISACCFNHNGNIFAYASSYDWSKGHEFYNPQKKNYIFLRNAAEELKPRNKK
UniProt Q9H974: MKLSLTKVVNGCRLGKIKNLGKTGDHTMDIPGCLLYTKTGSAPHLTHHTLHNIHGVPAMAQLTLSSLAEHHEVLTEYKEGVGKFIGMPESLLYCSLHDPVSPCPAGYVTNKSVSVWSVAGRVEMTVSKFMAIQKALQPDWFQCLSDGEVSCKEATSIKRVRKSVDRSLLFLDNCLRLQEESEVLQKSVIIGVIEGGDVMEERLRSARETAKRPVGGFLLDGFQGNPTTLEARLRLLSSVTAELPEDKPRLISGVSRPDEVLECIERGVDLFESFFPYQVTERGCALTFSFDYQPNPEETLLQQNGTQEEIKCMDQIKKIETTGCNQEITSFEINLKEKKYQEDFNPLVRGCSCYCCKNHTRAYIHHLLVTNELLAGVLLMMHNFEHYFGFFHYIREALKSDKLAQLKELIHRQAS
UniProt Q53H96: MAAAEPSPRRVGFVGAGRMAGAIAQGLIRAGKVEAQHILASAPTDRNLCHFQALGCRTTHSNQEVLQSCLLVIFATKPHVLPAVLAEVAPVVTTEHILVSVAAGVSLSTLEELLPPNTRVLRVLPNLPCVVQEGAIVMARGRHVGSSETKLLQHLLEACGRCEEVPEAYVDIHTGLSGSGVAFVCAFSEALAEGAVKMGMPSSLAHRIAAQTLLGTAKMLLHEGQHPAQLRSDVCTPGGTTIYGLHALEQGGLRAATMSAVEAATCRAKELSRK
UniProt P54725: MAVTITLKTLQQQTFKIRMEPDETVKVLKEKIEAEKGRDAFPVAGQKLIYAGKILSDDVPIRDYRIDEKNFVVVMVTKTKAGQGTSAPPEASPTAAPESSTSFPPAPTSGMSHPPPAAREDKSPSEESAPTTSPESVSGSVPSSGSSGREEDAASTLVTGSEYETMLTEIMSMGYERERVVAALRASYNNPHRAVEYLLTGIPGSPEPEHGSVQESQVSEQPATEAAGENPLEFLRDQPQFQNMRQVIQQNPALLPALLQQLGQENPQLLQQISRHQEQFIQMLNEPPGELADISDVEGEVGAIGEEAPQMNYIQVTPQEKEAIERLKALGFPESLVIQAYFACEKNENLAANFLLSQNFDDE
UniProt P20339: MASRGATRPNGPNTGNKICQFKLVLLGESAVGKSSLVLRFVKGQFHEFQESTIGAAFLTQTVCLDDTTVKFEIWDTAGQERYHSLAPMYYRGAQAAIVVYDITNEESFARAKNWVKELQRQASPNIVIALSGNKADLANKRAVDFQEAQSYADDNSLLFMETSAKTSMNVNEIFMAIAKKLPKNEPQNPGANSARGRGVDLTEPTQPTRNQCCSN
UniProt Q15276: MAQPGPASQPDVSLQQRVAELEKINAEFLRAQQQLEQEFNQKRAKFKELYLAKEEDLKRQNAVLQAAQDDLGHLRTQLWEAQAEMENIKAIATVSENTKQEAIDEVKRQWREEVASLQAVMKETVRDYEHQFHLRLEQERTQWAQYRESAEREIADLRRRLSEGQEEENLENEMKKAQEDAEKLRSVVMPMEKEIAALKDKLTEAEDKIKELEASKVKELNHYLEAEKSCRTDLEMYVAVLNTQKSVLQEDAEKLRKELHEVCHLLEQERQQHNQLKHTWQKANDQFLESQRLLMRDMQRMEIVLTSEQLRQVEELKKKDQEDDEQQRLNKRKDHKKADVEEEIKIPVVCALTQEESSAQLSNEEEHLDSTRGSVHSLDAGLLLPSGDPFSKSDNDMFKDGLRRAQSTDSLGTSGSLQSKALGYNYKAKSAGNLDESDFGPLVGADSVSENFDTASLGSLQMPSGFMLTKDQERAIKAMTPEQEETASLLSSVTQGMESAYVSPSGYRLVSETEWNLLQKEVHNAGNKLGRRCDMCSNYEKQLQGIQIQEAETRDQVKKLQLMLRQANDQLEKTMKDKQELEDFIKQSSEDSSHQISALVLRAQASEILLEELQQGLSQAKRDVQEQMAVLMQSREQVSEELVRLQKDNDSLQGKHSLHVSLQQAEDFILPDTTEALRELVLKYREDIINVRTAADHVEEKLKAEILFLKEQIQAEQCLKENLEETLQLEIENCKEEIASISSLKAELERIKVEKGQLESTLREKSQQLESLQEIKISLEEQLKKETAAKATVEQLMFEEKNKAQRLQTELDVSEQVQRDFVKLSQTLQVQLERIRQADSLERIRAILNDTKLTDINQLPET
UniProt P62834: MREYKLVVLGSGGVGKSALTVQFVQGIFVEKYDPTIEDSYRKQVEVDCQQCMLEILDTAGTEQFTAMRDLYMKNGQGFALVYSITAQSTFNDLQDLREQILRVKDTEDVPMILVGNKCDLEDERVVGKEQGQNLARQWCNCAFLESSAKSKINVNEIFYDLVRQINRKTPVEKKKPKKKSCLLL
UniProt Q9UL25: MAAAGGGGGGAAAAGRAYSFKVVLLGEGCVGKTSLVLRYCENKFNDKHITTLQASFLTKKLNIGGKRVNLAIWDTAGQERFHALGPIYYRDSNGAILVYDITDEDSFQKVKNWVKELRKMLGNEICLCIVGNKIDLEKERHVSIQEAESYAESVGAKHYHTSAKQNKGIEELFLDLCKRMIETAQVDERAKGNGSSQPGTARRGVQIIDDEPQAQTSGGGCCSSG
UniProt Q06609, whole entry, looked up: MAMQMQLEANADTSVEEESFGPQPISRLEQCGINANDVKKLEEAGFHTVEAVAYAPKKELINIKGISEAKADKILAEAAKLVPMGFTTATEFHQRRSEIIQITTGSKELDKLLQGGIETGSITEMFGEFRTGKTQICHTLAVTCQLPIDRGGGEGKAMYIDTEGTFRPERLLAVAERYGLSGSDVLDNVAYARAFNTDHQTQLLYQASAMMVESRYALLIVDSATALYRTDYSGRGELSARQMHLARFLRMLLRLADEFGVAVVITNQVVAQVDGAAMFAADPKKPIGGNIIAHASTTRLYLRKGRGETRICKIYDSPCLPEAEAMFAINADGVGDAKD
UniProt Q969Q5: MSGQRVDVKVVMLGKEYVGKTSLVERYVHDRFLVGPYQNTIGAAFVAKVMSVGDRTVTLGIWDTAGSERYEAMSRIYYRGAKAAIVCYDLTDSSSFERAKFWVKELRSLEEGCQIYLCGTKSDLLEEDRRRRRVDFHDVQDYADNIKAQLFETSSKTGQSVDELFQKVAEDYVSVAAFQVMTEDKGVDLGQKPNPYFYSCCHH

pictilisib = compound: CS(=O)(=O)N1CCN(Cc2cc3nc(-c4cccc5[nH]ncc45)nc(N4CCOCC4)c3s2)CC1 [pictilisib]
How it was run: as §1

crizotinib = compound: C[C@@H](Oc1cc(-c2cnn(C3CCNCC3)c2)cnc1N)c1c(Cl)ccc(F)c1Cl [crizotinib]
How it was run: as §1

[1] = compound: C[C@H](C1=CC=C(C=C1)C(=O)NC2=C3C=CNC3=NC=C2)N
How it was run: as §1

duvelisib = compound: C[C@H](Nc1ncnc2nc[nH]c12)c1cc2cccc(Cl)c2c(=O)n1-c1ccccc1 [duvelisib]
How it was run: as §1

gandotinib = compound: Cc1cc(Nc2cc(CN3CCOCC3)c3nc(C)c(Cc4ccc(Cl)cc4F)n3n2)n[nH]1 [gandotinib]
How it was run: as §1

tozasertib = compound: Cc1cc(Nc2cc(N3CCN(C)CC3)nc(Sc3ccc(NC(=O)C4CC4)cc3)n2)n[nH]1 [tozasertib]
How it was run: as §1

doramapimod = compound: Cc1ccc(-n2nc(C(C)(C)C)cc2NC(=O)Nc2ccc(OCCN3CCOCC3)c3ccccc23)cc1 [doramapimod]
How it was run: as §1

bafetinib = compound: Cc1ccc(NC(=O)c2ccc(CN3CC[C@H](N(C)C)C3)c(C(F)(F)F)c2)cc1Nc1nccc(-c2cncnc2)n1 [bafetinib]
How it was run: as §1

[2] = compound: Cc1cccc(CC(=O)N2CCc3c2ccc(-c2cn(C)c4ncnc(N)c24)c3F)n1
How it was run: as §1

nilotinib = compound: Cc1cn(-c2cc(NC(=O)c3ccc(C)c(Nc4nccc(-c5cccnc5)n4)c3)cc(C(F)(F)F)c2)cn1 [nilotinib]
How it was run: as §1

[3] = compound: Cc1nc(Nc2n[nH]c3c2CN(C(=O)N[C@H](CN(C)C)c2ccccc2)C3(C)C)c2sccc2n1
How it was run: as §1

dasatinib = compound: Cc1nc(Nc2ncc(C(=O)Nc3c(C)cccc3Cl)s2)cc(N2CCN(CCO)CC2)n1 [dasatinib]
How it was run: as §1

[4] = compound: Cc1ncc(-c2ccnc(Nc3ccc(S(C)(=O)=O)cc3)n2)n1C(C)C
How it was run: as §1

[5] = compound: Cn1cc(-c2ccc3c(c2)CCN3C(=O)Cc2cccc(C(F)(F)F)c2)c2c(N)ncnc21
How it was run: as §1

quisinostat = compound: Cn1cc(CNCC2CCN(c3ncc(C(=O)NO)cn3)CC2)c2ccccc21 [quisinostat]
How it was run: as §1

tipifarnib = compound: Cn1cncc1[C@@](N)(c1ccc(Cl)cc1)c1ccc2c(c1)c(-c1cccc(Cl)c1)cc(=O)n2C [tipifarnib]
How it was run: as §1

[6] = compound: NC(=O)Nc1cc(-c2cccc(F)c2)sc1C(=O)N[C@H]1CCCNC1
How it was run: as §1

[7] = compound: NC(=O)c1cnc(N[C@@H]2CCCC[C@@H]2N)nc1Nc1cccc(-n2nccn2)c1
How it was run: as §1

[8] = compound: NC1(c2ccc(-c3nc4ccn5c(=O)[nH]nc5c4cc3-c3ccccc3)cc2)CCC1
How it was run: as §1

Target | log2 fold change (lapatinib) | log2 fold change (pictilisib) | log2 fold change (crizotinib) | log2 fold change [1] | log2 fold change (duvelisib) | log2 fold change (gandotinib) | log2 fold change (tozasertib) | log2 fold change (doramapimod) | log2 fold change (bafetinib) | log2 fold change [2] | log2 fold change (nilotinib) | log2 fold change [3] | log2 fold change (dasatinib) | log2 fold change [4] | log2 fold change [5] | log2 fold change (quisinostat) | log2 fold change (tipifarnib) | log2 fold change [6] | log2 fold change [7] | log2 fold change [8]
RAB3GAP1 (UniProt Q15042) | inactive: 0.012 | inactive: 0.003 | inactive: -0.059 | inactive: -0.004 | inactive: -0.012 | inactive: -0.077 | inactive: 0.002 | inactive: 0.018 | inactive: -0.056 | inactive: 0.014 | inactive: 0.01 | inactive: 0.006 | inactive: -0.058 | inactive: 0.006 | inactive: 0.026 | inactive: -0.022 | inactive: -0.041 | inactive: 0.009 | inactive: -0.002 | inactive: -0.017
RALA (UniProt P11233) | inactive: -0.017 | inactive: -0.022 | inactive: 0.012 | active: -0.3 | inactive: 0 | inactive: 0.158 | inactive: -0.009 | inactive: 0.014 | inactive: 0.029 | active: 0.217 | inactive: -0.04 | inactive: -0.001 | inactive: 0.017 | inactive: -0.04 | inactive: -0.018 | inactive: 0.004 | inactive: -0.041 | inactive: 0.033 | inactive: 0.038 | inactive: -0.003
RACK1 (UniProt P63244) | inactive: -0.009 | inactive: 0.002 | inactive: -0.007 | inactive: 0.038 | inactive: -0.005 | inactive: -0.036 | inactive: -0.016 | inactive: 0.017 | inactive: 0.038 | inactive: -0.031 | inactive: -0.003 | inactive: 0.003 | inactive: -0.029 | inactive: 0 | inactive: 0.021 | inactive: 0.071 | inactive: 0.004 | inactive: -0.03 | inactive: -0.008 | inactive: -0.007
RAB35 (UniProt Q15286) | inactive: -0.022 | inactive: 0.039 | inactive: 0.037 | inactive: -0.033 | inactive: 0.006 | inactive: -0.027 | inactive: -0.01 | inactive: -0.013 | inactive: -0.002 | inactive: 0.023 | inactive: -0.043 | inactive: 0.004 | inactive: -0.024 | inactive: 0 | inactive: -0.082 | inactive: -0.026 | inactive: -0.013 | inactive: -0.004 | inactive: 0.003 | inactive: 0.001
QDPR (UniProt P09417) | inactive: -0.063 | inactive: -0.042 | inactive: -0.003 | inactive: -0.039 | inactive: 0.037 | inactive: -0.011 | inactive: -0.003 | inactive: -0.015 | inactive: -0.005 | inactive: 0.022 | inactive: -0.029 | inactive: -0.013 | inactive: -0.031 | inactive: 0.047 | inactive: 0.011 | inactive: -0.029 | inactive: 0.008 | inactive: -0.004 | inactive: 0.004 | inactive: 0.002
RAE1 (UniProt P78406) | inactive: 0.055 | inactive: 0.003 | inactive: 0.05 | inactive: -0.158 | inactive: -0.063 | inactive: 0.031 | inactive: -0.071 | inactive: -0.032 | inactive: 0.235 | inactive: 0.111 | inactive: -0.093 | inactive: 0.042 | inactive: 0.002 | inactive: 0.012 | inactive: 0.033 | inactive: 0.038 | inactive: -0.053 | inactive: 0.026 | inactive: 0.024 | inactive: 0.015
QTRT2 isoform 4 (UniProt Q9H974) | inactive: -0.016 | inactive: -0.037 | inactive: -0.018 | active: -0.297 | inactive: -0.008 | inactive: 0.185 | inactive: 0.003 | inactive: -0.029 | inactive: -0.089 | active: 0.256 | inactive: -0.001 | inactive: -0.024 | inactive: 0.005 | inactive: -0.024 | inactive: -0.051 | inactive: -0.059 | inactive: 0.022 | inactive: 0.022 | inactive: 0.004 | inactive: 0.021
PYCR3 (UniProt Q53H96) | inactive: -0.027 | inactive: -0.071 | inactive: -0.027 | inactive: 0.021 | inactive: 0.021 | inactive: 0.028 | inactive: 0.011 | inactive: 0.042 | inactive: -0.023 | inactive: -0.019 | inactive: 0.025 | inactive: 0.032 | inactive: -0.009 | inactive: 0.079 | inactive: -0.015 | inactive: -0.014 | inactive: -0.004 | inactive: -0.041 | inactive: -0.009 | inactive: 0.028
RAD23A (UniProt P54725) | inactive: 0.033 | inactive: 0 | inactive: 0.008 | inactive: -0.026 | inactive: -0.005 | inactive: 0.016 | inactive: 0.028 | inactive: 0.068 | inactive: 0.019 | inactive: -0.017 | inactive: -0.032 | inactive: 0.042 | inactive: 0.02 | inactive: -0.05 | inactive: -0.01 | inactive: 0 | inactive: -0.02 | inactive: -0.009 | inactive: 0.007 | inactive: 0.026
RAB5A (UniProt P20339) | inactive: 0 | inactive: -0.073 | inactive: -0.047 | inactive: 0.018 | inactive: 0.017 | inactive: -0.015 | inactive: 0.051 | inactive: -0.03 | inactive: -0.044 | inactive: 0.023 | inactive: 0.005 | inactive: 0.022 | inactive: -0.021 | inactive: 0.051 | inactive: -0.087 | inactive: -0.108 | inactive: -0.032 | inactive: -0.003 | inactive: -0.013 | inactive: -0.049
RAC1 isoform 2 (UniProt P63000) | inactive: 0.056 | inactive: -0.01 | inactive: 0.088 | inactive: 0.19 | inactive: 0.002 | inactive: -0.125 | inactive: 0.01 | inactive: 0.016 | inactive: 0.154 | inactive: -0.185 | inactive: 0.001 | inactive: 0.001 | inactive: -0.012 | inactive: -0.023 | inactive: -0.014 | inactive: 0.162 | inactive: -0.002 | inactive: -0.076 | inactive: -0.028 | inactive: 0.013
RABEP1 (UniProt Q15276) | inactive: 0.002 | inactive: 0.001 | inactive: 0.029 | inactive: -0.015 | inactive: 0.006 | inactive: 0.049 | inactive: 0.002 | inactive: -0.014 | inactive: -0.04 | inactive: 0.015 | inactive: 0.022 | inactive: -0.01 | inactive: 0.008 | inactive: 0.011 | inactive: -0.004 | inactive: 0.004 | inactive: -0.011 | inactive: -0.006 | inactive: -0.004 | inactive: 0.007
RAP1A (UniProt P62834) | inactive: -0.046 | inactive: -0.012 | inactive: 0.058 | inactive: -0.092 | inactive: 0.007 | inactive: -0.005 | inactive: 0.033 | inactive: -0.043 | inactive: 0.028 | inactive: 0.016 | inactive: 0.024 | inactive: 0.013 | inactive: 0.016 | inactive: -0.011 | inactive: -0.005 | inactive: 0.077 | inactive: -0.021 | inactive: -0.02 | inactive: -0.012 | inactive: -0.006
RAB21 (UniProt Q9UL25) | inactive: -0.028 | inactive: -0.053 | inactive: -0.001 | inactive: 0.208 | inactive: -0.087 | inactive: -0.112 | inactive: -0.013 | inactive: -0.055 | inactive: -0.059 | inactive: -0.09 | inactive: 0.069 | inactive: -0.036 | inactive: 0.043 | inactive: -0.017 | inactive: -0.022 | inactive: -0.023 | inactive: -0.051 | inactive: 0.019 | inactive: -0.017 | inactive: -0.007
RAD51 (UniProt Q06609) | inactive: 0.005 | inactive: -0.09 | inactive: -0.01 | inactive: -0.142 | inactive: 0.026 | inactive: 0.002 | inactive: -0.051 | inactive: -0.025 | inactive: -0.061 | inactive: 0.013 | inactive: 0.039 | inactive: -0.002 | inactive: 0 | inactive: 0.009 | inactive: 0.01 | inactive: -0.016 | inactive: 0.018 | inactive: 0.046 | inactive: -0.099 | inactive: 0.054
RAB24 (UniProt Q969Q5) | inactive: -0.02 | inactive: -0.051 | inactive: 0.021 | inactive: -0.046 | inactive: 0.015 | inactive: -0.019 | inactive: -0.028 | inactive: 0.001 | inactive: 0.019 | inactive: 0.035 | inactive: -0.012 | inactive: -0.024 | inactive: 0.032 | inactive: 0.007 | inactive: -0.016 | inactive: -0.013 | inactive: 0.008 | inactive: -0.019 | inactive: -0.036 | inactive: 0.008

A second format for part of the listing above.
Target	log2 fold change (lapatinib)	log2 fold change (pictilisib)	log2 fold change (crizotinib)	log2 fold change [1]	log2 fold change (duvelisib)	log2 fold change (gandotinib)	log2 fold change (tozasertib)	log2 fold change (doramapimod)	log2 fold change (bafetinib)	log2 fold change [2]	log2 fold change (nilotinib)	log2 fold change [3]	log2 fold change (dasatinib)	log2 fold change [4]	log2 fold change [5]	log2 fold change (quisinostat)	log2 fold change (tipifarnib)	log2 fold change [6]	log2 fold change [7]	log2 fold change [8]
RAP1A (UniProt P62834)	inactive: -0.046	inactive: -0.012	inactive: 0.058	inactive: -0.092	inactive: 0.007	inactive: -0.005	inactive: 0.033	inactive: -0.043	inactive: 0.028	inactive: 0.016	inactive: 0.024	inactive: 0.013	inactive: 0.016	inactive: -0.011	inactive: -0.005	inactive: 0.077	inactive: -0.021	inactive: -0.02	inactive: -0.012	inactive: -0.006
RAB21 (UniProt Q9UL25)	inactive: -0.028	inactive: -0.053	inactive: -0.001	inactive: 0.208	inactive: -0.087	inactive: -0.112	inactive: -0.013	inactive: -0.055	inactive: -0.059	inactive: -0.09	inactive: 0.069	inactive: -0.036	inactive: 0.043	inactive: -0.017	inactive: -0.022	inactive: -0.023	inactive: -0.051	inactive: 0.019	inactive: -0.017	inactive: -0.007
RAD51 (UniProt Q06609)	inactive: 0.005	inactive: -0.09	inactive: -0.01	inactive: -0.142	inactive: 0.026	inactive: 0.002	inactive: -0.051	inactive: -0.025	inactive: -0.061	inactive: 0.013	inactive: 0.039	inactive: -0.002	inactive: 0	inactive: 0.009	inactive: 0.01	inactive: -0.016	inactive: 0.018	inactive: 0.046	inactive: -0.099	inactive: 0.054

From the supplement of paper PMC10849652
